From the supplement of paper PMC7858590 come the findings set out here.

Each structure is given as a SMILES string. Where “and” joins values, the source holds several entries; their conditions need not be identical. Equal entries are not always repeated. ± gives the standard deviation of the averaged measurements. In all, about 3,800 compounds were measured (“cell shape (eccentricity) Z-score vs DMSO control”: median about 1.1, lowest 2% from about -4.7 on). This is one part of the list.

The assay deals with human monocyte-derived macrophages (M0). The assay is described as follows: cell shape (eccentricity) Z-score vs DMSO control; higher = more elongated, M2-like morphology. To be noted: 20 µM; 24 h; macrophage state: M0 (M-CSF).
`O=C1Nc2cc(Cl)ccc2Oc2ccccc21`: the “cell shape (Z-score)” value was -1.93.

With `COc1ccc(C2OCC3C2CO[C@H]3c2ccc(OC)c(OC)c2)cc1OC` (stereo not given in full), the “cell shape (Z-score)” value amounted to 1.89 ± 1.2.

As to `COC(=O)C1=C(C)NC(C)=C(C(=O)OC(C)C)C1c1cccc2nonc12` (stereo not given), the “cell shape (Z-score)” value was -1.25.

For the molecule `CCCCC(=O)NCCc1c(Cc2ccccc2)[nH]c2ccccc12`, the “cell shape (Z-score)” value was determined as 0.707.

As for `Cc1cc2c(F)c(Oc3ncnn4cc(OC[C@@H](C)O)c(C)c34)ccc2[nH]1`, the “cell shape (Z-score)” value was found to be 3.4.

For the molecule `COc1ccc([C@@H]2O[C@@H](c3ccc(OC)c(OC)c3)[C@@H](C)[C@@H]2C)cc1OC`, the “cell shape (Z-score)” value was 1.4.

As to `COC(=O)C1(Cc2ccc(O)c(CC3OC3(C)C)c2)OC(=O)C(=O)C1c1ccc(O)cc1` (stereo not given), the “cell shape (Z-score)” value was determined as 3.21.

On to `CC(C)(O)CC[C@@H](O)[C@](C)(O)C1CC[C@@]2(O)C3=CC(=O)C4C[C@@H](O)[C@@H](O)C[C@]4(C)C3CC[C@]12C` (stereo not given in full), for which the “cell shape (Z-score)” value is 1.26.

As to `Oc1ccc2c(c1)OCC1(O)Cc3cc(O)c(O)cc3C21` (stereo not given), the “cell shape (Z-score)” value was 1.27.

Take `CC(=O)[C@@]1(O)CCC2C3C[C@H](C)C4=CC(=O)C=CC4(C)[C@@]3(F)[C@@H](O)C[C@@]21C` (stereo not given in full): the “cell shape (Z-score)” value was -2.14.

As for `Oc1ccc(-c2nc(-c3ccc(F)cc3)c(-c3ccncc3)[nH]2)cc1`, the “cell shape (Z-score)” value is -5.27.

Take `O=C(Nc1ccncc1)c1cc([N+](=O)[O-])ccc1Cl`: the “cell shape (Z-score)” value is 5.45.

As to `COc1cc(O)ccc1C(C)=O`, the “cell shape (Z-score)” value worked out at 1.8.

In the case of `CC1(C)CC[C@]2(C(=O)O)CC[C@]3(C)C(=CCC4[C@@]5(C)CC[C@H](O[C@@H]6O[C@H](C(=O)O)[C@@H](O[C@@H]7OC[C@@H](O)[C@H](O)[C@H]7O)[C@H](O)[C@H]6O)C(C)(C)C5CC[C@]43C)C2C1O` (stereo not given in full), the “cell shape (Z-score)” value was -0.342 ± 0.58.

As to `NC(=O)C1(N2CCCCC2)CCN(CCCC(=O)c2ccc(F)cc2)CC1`, the “cell shape (Z-score)” value is -0.00699.

For the molecule `COC(=O)Nc1ccc2[nH]cc(CCNC(C)=O)c2c1`, the “cell shape (Z-score)” value was -0.0575.

For `C#CC1(OCC(O)CN2CCN(c3ccccc3OC)CC2)CCCCC1` (stereo not given), the “cell shape (Z-score)” value was -0.311.

Turning to `CC1=CC(CC2(C)OC2COc2c3occc3cc3ccc(=O)oc23)OC1=O` (stereo not given), the “cell shape (Z-score)” value came out at 0.262.

As to `O=c1c(OC2OCC(O)C(O)C2O)c(-c2ccc(O)c(O)c2)oc2cc(O)cc(O)c12` (stereo not given), the “cell shape (Z-score)” value was 0.344.

On to `C[C@H](NC[C@H](O)CP(=O)(O)Cc1ccccc1)c1ccc(Cl)c(Cl)c1`, for which the “cell shape (Z-score)” value is -2.07.

Turning to `CCN(CC)CCOCCOC(=O)C(CC)(CC)c1ccccc1`, the “cell shape (Z-score)” value was 0.26.

Take `COc1ccc(S(=O)(=O)Nc2nnc(CC(C)C)s2)cc1`: the “cell shape (Z-score)” value was determined as 1.84.

For the molecule `CC(C)N1CCN(c2ccc(OC[C@H]3CO[C@](Cn4cncn4)(c4ccc(Cl)cc4Cl)O3)cc2)CC1`, the “cell shape (Z-score)” value was -0.671.

Take `COc1cc(C=O)cc2c1[nH]c1ccccc12`: the “cell shape (Z-score)” value was -2.18 ± 4.6.

With `NS(=O)(=O)OC[C@@H]1C[C@@H](n2ccc3c(N[C@H]4CCc5ccccc54)ncnc32)C[C@@H]1O`, the “cell shape (Z-score)” value was -2.97.

Consider `COc1c(C)c2c(c(O)c1C/C=C(\C)CCC(=O)OCCN1CCOCC1)C(=O)OC2`, for which the “cell shape (Z-score)” value came out at 0.549.

Consider `CC1OC(OC2C(OC3C(O[C@H]4CC[C@@]5(C)C(CC[C@]6(C)C5CC=C5[C@@H]7CC(C)(C)C[C@@H](O)[C@]7(C)CC[C@]56C)C4(C)C)OC(C(=O)O)C(O)C3O)OC(CO)C(O)C2O)C(O)C(O)C1O` (stereo not given in full), for which the “cell shape (Z-score)” value is -1.34.

`COc1cc([C@@H]2c3cc4c(cc3[C@@H](O[C@@H]3O[C@@H]5CO[C@@H](C)O[C@H]5[C@H](O)[C@H]3O)[C@H]3COC(=O)[C@H]23)OCO4)cc(OC)c1O`: the “cell shape (Z-score)” value is 1.27 and 1.94 and 2.14.

For `CC[C@@H](CO)NCCN[C@@H](CC)CO`, the “cell shape (Z-score)” value came to 1.57.

As for `COc1cc(/C(C)=C/C(C)CCCC(=O)O)oc(=O)c1C` (stereo not given), the “cell shape (Z-score)” value came out at 3.54.

`CC(=O)NC(Cc1c[nH]c2cc(Cl)ccc12)C(=O)O` (stereo not given): the “cell shape (Z-score)” value stood at 0.772.

`c1cnc(SCc2cccnc2)nc1`: the “cell shape (Z-score)” value came to 0.38.

Consider `COCC1=C(C(=O)OC(C)OC(=O)OC(C)C)N2C(=O)[C@@H](NC(=O)/C(=N/OC)c3csc(N)n3)[C@H]2SC1` (stereo not given in full), for which the “cell shape (Z-score)” value was 3.87.

For the molecule `COc1cc2occ(-c3ccc4c(c3)OCO4)c(=O)c2c(OC)c1OC`, the “cell shape (Z-score)” value was 1.55.

`C/C=C/C=C/C(=O)c1cc(C)c(O)c(C)c1O`: the “cell shape (Z-score)” value is 1.03.

Regarding `COc1cc([C@@H]2C3C=C([C@H]4Oc5cc(O)cc(O)c5C(=O)[C@@H]4O)[C@H]4[C@@H]2COC4(O)C3=O)ccc1O`, the “cell shape (Z-score)” value was determined as 0.475.

For the molecule `COc1ccc2oc3ccccc3c(=O)c2c1`, the “cell shape (Z-score)” value was determined as 3.87.

`C[C@@H]1O[C@@H](O[C@H]2[C@H](Oc3cc(O)c4c(c3)O[C@H](c3ccc(O)c(O)c3)CC4=O)O[C@H](CO)[C@@H](O)[C@@H]2O)[C@H](O)[C@H](O)[C@H]1O`: the “cell shape (Z-score)” value is -0.575.

With `CC1=CCC(C(C)(C)O[C@@H]2O[C@H](CO[C@@H]3O[C@H](COC(=O)c4cc(O)c(O)c(O)c4)[C@@H](O)[C@H](O)[C@H]3O)[C@@H](O)[C@H](O)[C@H]2O)CC1` (stereo not given in full), the “cell shape (Z-score)” value was -0.399.

Regarding `CC(O)Cn1cnc2c1c(=O)n(C)c(=O)n2C` (stereo not given), the “cell shape (Z-score)” value was 2.87.
